Reference: PubChem BioAssay AID720505 (Drosophila RNAi Screening Center, 2013)
The deposit covers about 20,000 reagents; below is an unselected part of those that have a named target and a result. In the full data, about 2,100 (10%) got an active call. 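Raw plate signals without normalisation; calls rest on control-based scores that were not deposited; replicate 2 separates called from uncalled poorly.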 Names joined by + are all predicted targets of the reagent. Not stated in the record: the amount of reagent, the time to read-out.

- Aim: 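Fly regulators or components of the CRAC channel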 (primary screen)
- System: Drosophila S2R+ cells
- Knock-down reagent: long dsRNA against Drosophila genes
- Challenge: thapsigargin (2 µM) in calcium-free buffer to empty internal stores, then 2 mM calcium added back
- Detection: 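Fluo-4 signal in 384-well plates read on a FLIPR after thapsigargin (2 µM, calcium-free) store depletion and 2 mM calcium add-back; unnormalised mean endpoint per well; screen run twice, selected wells retested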
- Scale: calcium signal and retest calcium signal: higher = more calcium entry after store depletion
- Call rule: 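About 1500 genes called as lowering calcium entry, by varying amounts, judged against per-plate control wells with STIM1 as positive and Rho1 as negative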
- Meaning of the calls: active = called as lowering calcium entry; inactive = not called

gene	dsRNA	calcium signal, replicate 1	calcium signal, replicate 2	retest calcium signal, replicate 1	retest calcium signal, replicate 2	activity call
CG7402	DRSC10839	83.3	179			inactive
Ing3 (Inhibitor of growth family, member 3)	DRSC20002	192	125	97.4	104	inactive
CG14362	DRSC14824	117	122			inactive
CG14453	DRSC11710	57.9	76.2	145	7096	active
tou (toutatis)	DRSC06006	150	174			inactive
tou (toutatis)	DRSC22710	137	160			inactive
AcCoAS (Acetyl Coenzyme A synthase)	DRSC11477	8458	136			inactive
AcCoAS (Acetyl Coenzyme A synthase)	DRSC11603	49	99.1			active
AcCoAS (Acetyl Coenzyme A synthase)	DRSC22850	81.9	103			inactive
ed (echinoid)	DRSC00350	142	209			inactive
ed (echinoid)	DRSC00438	196	76			inactive
ed (echinoid)	DRSC00439	190	76.5			inactive
ed (echinoid)	DRSC00478	72.8	180			active
Nrg (Neuroglian)	DRSC18688	144	94.9			inactive
CG10674	DRSC09775	99.9	86.4			inactive
idc (identity crisis)	DRSC15680	183	309			inactive
CG8191 + CG12379	DRSC19451	89.9	127			inactive
CG10936	DRSC05669	114	106			inactive
CG10936	DRSC05670	114	99.1			inactive
CG10936	DRSC06018	169	141			inactive
CG15472	DRSC18055	271	99.2			inactive
Tsp29Fb (Tetraspanin 29Fb)	DRSC03233	130	92.8			inactive
Ppcs (Phosphopantothenoylcysteine synthetase)	DRSC14127	151	210			inactive
Rab9Db + Rab9Fa	DRSC18445	86.9	112			inactive
hdly (hadley)	DRSC15849	276	170			inactive
CG9864	DRSC07346	205	156			inactive
CG6180	DRSC02937	115	107			inactive
CG11584	DRSC19408	112	121			inactive
CkIIalpha-i1 (CKII-alpha subunit interactor-1)	DRSC11115	169	273			inactive
CG5697	DRSC15858	162	157			inactive
CG8243	DRSC07122	80.4	95.6			inactive
CG8243	DRSC22608	168	224			inactive
CG13159	DRSC06283	49.1	49	116	209	active
Taf13 (TBP-associated factor 13)	DRSC02106	141	115			inactive

4 successive records from above, for reference:
gene	dsRNA	calcium signal, replicate 1	calcium signal, replicate 2	retest calcium signal, replicate 1	retest calcium signal, replicate 2	activity call
CG14453	DRSC11710	57.9	76.2	145	7096	active
tou (toutatis)	DRSC06006	150	174			inactive
tou (toutatis)	DRSC22710	137	160			inactive
AcCoAS (Acetyl Coenzyme A synthase)	DRSC11477	8458	136			inactive
